Test results as given in paper PMC11605229.

By UniProt entry, the sequences of proteins in these tests, tags left out. Residues count along the entry.
UniProt O75475: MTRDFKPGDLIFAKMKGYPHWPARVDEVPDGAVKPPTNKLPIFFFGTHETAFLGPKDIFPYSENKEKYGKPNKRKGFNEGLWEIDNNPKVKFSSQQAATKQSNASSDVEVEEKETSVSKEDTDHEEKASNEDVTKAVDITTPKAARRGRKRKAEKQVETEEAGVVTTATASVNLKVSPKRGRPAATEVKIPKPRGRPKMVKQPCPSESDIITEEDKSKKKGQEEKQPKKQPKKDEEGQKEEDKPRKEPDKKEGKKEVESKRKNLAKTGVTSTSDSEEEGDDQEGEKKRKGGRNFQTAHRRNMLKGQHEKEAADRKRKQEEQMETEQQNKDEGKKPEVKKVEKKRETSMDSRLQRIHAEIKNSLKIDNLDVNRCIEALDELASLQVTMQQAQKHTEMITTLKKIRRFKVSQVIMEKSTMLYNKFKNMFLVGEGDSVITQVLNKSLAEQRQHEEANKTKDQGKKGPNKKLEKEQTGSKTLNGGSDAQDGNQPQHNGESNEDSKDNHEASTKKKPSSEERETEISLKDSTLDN
UniProt P49821, residues 21-464: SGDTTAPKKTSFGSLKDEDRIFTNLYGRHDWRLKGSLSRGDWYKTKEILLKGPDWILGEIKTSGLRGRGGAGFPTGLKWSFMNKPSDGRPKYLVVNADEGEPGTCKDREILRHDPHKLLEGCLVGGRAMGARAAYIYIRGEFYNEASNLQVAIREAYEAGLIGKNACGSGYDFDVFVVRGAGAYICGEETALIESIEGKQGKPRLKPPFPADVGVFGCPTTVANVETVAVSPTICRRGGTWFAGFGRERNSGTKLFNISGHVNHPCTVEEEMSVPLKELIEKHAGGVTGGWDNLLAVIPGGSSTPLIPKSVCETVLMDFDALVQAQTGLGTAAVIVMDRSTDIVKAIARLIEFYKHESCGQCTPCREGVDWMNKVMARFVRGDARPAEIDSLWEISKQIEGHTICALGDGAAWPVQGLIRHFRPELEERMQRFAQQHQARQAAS
UniProt Q9UHB6: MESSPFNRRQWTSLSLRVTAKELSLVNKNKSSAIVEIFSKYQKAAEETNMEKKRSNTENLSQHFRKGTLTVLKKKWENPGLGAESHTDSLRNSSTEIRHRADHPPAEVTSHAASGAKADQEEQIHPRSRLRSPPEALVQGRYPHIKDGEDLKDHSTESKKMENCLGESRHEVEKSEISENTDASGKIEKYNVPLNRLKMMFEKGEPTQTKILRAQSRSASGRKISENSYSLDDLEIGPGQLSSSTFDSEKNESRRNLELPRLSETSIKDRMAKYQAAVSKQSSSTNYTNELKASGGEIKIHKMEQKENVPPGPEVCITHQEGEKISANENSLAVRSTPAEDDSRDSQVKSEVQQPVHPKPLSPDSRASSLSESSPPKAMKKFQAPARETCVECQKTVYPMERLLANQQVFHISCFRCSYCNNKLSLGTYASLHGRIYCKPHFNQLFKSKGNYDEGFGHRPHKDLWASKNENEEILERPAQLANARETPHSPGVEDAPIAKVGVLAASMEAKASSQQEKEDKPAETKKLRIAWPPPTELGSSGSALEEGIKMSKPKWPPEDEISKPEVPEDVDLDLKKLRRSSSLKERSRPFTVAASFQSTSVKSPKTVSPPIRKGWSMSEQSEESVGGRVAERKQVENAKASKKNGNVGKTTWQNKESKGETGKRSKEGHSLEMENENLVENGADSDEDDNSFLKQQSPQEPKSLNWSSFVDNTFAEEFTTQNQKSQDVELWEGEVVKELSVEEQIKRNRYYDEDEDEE
UniProt Q01995: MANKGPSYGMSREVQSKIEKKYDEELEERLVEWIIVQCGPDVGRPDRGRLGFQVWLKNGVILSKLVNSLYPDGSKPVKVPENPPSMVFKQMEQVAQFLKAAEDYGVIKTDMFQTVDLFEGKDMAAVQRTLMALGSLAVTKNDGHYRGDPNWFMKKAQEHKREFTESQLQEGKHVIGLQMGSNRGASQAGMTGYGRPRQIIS
UniProt O00151: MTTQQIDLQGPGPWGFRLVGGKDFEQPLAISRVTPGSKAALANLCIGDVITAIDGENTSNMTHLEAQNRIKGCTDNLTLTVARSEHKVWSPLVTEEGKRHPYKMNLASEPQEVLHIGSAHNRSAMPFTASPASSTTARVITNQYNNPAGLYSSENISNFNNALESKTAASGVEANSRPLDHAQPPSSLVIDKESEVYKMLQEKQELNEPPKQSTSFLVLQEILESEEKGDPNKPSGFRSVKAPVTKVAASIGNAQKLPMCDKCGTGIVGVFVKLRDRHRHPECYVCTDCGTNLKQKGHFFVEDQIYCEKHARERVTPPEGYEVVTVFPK
UniProt Q99612: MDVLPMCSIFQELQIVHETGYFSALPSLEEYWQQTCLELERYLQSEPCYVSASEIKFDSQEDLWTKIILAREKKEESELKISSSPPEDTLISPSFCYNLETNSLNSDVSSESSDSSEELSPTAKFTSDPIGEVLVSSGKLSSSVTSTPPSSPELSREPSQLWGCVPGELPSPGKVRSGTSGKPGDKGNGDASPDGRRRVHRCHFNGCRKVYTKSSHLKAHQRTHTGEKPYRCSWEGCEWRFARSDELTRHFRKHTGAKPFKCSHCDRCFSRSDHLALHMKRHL
UniProt P55010: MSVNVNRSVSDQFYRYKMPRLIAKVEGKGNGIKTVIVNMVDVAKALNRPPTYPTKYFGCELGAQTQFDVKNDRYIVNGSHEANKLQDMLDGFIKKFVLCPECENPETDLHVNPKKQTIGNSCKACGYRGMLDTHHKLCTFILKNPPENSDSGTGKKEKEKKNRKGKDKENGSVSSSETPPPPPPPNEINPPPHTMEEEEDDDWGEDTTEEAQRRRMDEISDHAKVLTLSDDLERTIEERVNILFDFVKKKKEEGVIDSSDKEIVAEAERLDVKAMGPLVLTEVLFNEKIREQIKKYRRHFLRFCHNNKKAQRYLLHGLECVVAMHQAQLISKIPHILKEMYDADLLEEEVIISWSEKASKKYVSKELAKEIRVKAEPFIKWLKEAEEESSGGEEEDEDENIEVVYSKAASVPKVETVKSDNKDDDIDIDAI
UniProt Q9Y5K8: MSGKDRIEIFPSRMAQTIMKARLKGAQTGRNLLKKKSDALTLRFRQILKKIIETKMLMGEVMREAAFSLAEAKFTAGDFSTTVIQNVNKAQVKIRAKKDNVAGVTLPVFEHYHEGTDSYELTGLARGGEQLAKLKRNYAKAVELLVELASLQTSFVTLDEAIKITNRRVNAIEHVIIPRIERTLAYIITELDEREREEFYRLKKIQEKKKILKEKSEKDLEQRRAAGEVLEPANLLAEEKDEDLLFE
UniProt O43166: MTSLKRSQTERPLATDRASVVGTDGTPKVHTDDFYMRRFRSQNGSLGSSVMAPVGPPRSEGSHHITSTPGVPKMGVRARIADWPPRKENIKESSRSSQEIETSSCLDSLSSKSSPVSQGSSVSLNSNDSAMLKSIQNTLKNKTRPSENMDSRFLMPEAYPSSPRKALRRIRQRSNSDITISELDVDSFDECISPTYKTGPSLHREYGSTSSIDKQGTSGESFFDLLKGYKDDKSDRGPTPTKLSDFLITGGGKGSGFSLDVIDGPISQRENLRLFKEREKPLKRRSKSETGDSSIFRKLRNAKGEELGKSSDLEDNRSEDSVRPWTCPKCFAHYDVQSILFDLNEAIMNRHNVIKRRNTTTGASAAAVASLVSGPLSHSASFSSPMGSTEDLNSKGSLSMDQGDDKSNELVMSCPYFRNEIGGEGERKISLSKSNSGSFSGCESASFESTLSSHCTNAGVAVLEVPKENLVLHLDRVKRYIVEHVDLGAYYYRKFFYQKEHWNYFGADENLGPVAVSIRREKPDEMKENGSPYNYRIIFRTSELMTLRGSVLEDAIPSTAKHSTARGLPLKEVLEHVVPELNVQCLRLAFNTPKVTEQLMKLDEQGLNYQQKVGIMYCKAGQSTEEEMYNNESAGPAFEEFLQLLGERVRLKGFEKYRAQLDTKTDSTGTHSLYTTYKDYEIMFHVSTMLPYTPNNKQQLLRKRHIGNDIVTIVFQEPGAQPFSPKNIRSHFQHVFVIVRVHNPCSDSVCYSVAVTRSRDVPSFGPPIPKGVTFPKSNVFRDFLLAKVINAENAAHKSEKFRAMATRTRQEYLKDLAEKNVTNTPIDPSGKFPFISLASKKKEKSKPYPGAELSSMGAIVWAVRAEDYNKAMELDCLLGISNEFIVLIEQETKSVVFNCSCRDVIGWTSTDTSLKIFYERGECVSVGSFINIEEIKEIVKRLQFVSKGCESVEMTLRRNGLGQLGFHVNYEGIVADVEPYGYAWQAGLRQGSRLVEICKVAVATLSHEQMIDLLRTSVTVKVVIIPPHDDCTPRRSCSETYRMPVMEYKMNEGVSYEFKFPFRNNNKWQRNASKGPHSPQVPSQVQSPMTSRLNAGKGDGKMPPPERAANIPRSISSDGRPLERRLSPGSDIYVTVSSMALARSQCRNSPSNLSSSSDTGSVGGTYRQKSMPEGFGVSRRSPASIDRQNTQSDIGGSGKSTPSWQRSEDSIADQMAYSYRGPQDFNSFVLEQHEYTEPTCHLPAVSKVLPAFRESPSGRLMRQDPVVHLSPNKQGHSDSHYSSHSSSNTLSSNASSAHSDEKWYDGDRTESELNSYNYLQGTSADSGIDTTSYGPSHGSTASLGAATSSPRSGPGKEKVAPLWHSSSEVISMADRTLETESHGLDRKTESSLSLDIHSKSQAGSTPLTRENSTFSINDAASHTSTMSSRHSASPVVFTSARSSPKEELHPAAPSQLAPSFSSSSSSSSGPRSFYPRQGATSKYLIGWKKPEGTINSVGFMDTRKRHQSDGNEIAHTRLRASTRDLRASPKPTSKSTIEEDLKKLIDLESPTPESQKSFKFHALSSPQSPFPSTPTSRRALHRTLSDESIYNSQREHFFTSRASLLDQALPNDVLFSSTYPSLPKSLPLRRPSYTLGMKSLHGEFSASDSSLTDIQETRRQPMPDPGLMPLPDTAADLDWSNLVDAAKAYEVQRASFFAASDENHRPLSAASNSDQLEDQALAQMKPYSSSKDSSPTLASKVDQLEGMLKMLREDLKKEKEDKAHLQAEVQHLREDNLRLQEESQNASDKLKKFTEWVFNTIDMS
UniProt P23528: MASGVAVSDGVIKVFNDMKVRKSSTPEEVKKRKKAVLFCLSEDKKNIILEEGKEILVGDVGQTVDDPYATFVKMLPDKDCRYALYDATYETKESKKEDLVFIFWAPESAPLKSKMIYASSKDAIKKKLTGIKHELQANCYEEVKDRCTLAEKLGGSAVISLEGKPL
UniProt Q9UJ70: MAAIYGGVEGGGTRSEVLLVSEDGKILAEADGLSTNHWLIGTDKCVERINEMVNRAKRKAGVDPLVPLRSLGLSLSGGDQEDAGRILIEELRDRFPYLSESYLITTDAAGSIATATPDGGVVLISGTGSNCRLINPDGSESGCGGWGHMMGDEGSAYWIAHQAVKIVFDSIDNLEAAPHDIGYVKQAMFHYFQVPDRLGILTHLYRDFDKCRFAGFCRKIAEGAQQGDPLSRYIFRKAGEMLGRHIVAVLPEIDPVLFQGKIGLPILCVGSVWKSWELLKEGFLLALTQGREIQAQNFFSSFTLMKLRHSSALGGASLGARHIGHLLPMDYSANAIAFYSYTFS
UniProt P40938: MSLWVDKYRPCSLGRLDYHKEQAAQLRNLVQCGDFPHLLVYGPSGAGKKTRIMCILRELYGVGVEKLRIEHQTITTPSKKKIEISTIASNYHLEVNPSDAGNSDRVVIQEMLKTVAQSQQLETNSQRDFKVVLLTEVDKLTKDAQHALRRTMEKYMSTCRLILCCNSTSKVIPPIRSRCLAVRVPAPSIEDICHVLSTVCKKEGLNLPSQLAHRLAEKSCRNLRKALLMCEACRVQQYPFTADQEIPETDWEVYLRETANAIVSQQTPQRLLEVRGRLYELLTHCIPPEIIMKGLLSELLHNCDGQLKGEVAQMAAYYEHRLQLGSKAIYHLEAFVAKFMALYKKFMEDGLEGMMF
UniProt O95139: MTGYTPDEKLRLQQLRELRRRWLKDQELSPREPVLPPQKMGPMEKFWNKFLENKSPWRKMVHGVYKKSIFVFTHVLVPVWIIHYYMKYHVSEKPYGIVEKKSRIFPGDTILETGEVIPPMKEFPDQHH
UniProt Q07021, residues 74-282: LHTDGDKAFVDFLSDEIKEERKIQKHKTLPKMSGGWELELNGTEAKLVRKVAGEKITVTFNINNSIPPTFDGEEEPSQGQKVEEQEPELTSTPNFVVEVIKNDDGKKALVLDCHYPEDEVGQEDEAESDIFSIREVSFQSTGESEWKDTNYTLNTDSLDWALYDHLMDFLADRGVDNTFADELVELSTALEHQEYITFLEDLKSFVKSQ
UniProt Q04760: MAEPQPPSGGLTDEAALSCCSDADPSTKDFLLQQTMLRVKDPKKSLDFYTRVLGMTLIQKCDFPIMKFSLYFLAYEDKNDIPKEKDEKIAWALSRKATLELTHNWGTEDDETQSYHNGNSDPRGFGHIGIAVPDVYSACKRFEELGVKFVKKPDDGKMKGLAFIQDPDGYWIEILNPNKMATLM
UniProt Q13185: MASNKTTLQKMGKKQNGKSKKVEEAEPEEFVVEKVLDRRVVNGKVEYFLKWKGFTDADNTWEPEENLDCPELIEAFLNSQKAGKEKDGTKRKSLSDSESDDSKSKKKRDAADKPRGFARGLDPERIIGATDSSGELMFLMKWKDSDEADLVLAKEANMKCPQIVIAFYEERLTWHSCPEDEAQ

Target: BioID-BAG3 (UniProt O95817)
Assay: proximity labelling; BioID in human AC16 cardiomyocyte cells: transfected with plasmid expressing BioID-BAG3 for 48 h, biotin for 16 h; LC-MS/MS; BAG3_Biotin vs. BioID vector only, adjusted p < 0.05; effect sizes corrected for biotin alone and for BAG3 over-expression; three replicates

Row | Substance | binding
1 | PSIP1 (from UniProt O75475 1-530) | binds
2 | DCP2 (from UniProt Q8IU60 1-420) | binds
3 | NADH dehydrogenase flavoprotein 1, mitochondrial (from UniProt P49821 21-464) | binds
4 | LIMA1 (from UniProt Q9UHB6 1-759) | binds
5 | heat shock 70 kDa protein 6 (from UniProt P17066 1-643) | binds
6 | TAGLN (from UniProt Q01995 1-201) | binds
7 | NASP (from UniProt P49321 1-788) | binds
8 | CASP1 (from UniProt P29466 1-404) | binds
9 | RFC2 (from UniProt P35250 1-354) | binds
10 | ANXA5 (from UniProt P08758 1-320) | binds
11 | PDLIM1 (from UniProt O00151 1-329) | binds
12 | TRIM21 (from UniProt P19474 1-475) | binds
13 | PSMC2 (from UniProt P35998 1-433) | binds
14 | CBX5 (from UniProt P45973 1-191) | binds
15 | SPTAN1 (from UniProt Q13813 1-2472) | binds
16 | REV3L (from UniProt O60673 1-3130) | binds
17 | KLF6 (from UniProt Q99612 1-283) | binds
18 | PHLDA1 (from UniProt Q8WV24 1-401) | binds
19 | CDC5L (from UniProt Q99459 1-802) | binds
20 | EIF5 (from UniProt P55010 1-431) | binds
21 | TPX2 (from UniProt Q9ULW0 1-747) | binds
22 | TP53 (from UniProt P04637 1-393) | binds
23 | DBT (from UniProt P11182 62-482) | binds
24 | FUS (from UniProt P35637 1-526) | binds
25 | IFIH1 (from UniProt Q9BYX4 1-1025) | binds
26 | PIKFYVE (from UniProt Q9Y2I7 1-2098) | binds
27 | ATP6V1D (from UniProt Q9Y5K8 1-247) | binds
28 | STMN1 (from UniProt P16949 1-149) | binds

Further lines, results first:

Row | binding | Substance
29 | binds | SIPA1L1 (from UniProt O43166 1-1804)
30 | binds | GTF2F1 (from UniProt P35269 1-517)
31 | binds | PEBP1 (from UniProt P30086 1-187)
32 | binds | CFL1 (from UniProt P23528 1-166)
33 | binds | EIF4A3 (from UniProt P38919 1-411)
34 | binds | PCM1 (from UniProt Q15154 1-2024)
35 | binds | NAGK (from UniProt Q9UJ70 1-344)
36 | binds | NUP153 (from UniProt P49790 1-1475)
37 | binds | SGK1 (from UniProt O00141 1-431)
38 | binds | RFC3 (from UniProt P40938 1-356)
39 | binds | ARFGAP3 (from UniProt Q9NP61 1-516)
40 | binds | NADH dehydrogenase 1 beta subcomplex subunit 6 (from UniProt O95139 1-128)
41 | binds | NADH dehydrogenase 1 beta subcomplex subunit 3 (from UniProt O43676 1-98)
42 | binds | PHF3 (from UniProt Q92576 1-2039)
43 | binds | complement component 1 Q subcomponent-binding protein, mitochondrial (from UniProt Q07021 74-282)
44 | binds | SVIL (from UniProt O95425 1-2214)
45 | binds | ATXN1 (from UniProt P54253 1-815)
46 | binds | ENAH (from UniProt Q8N8S7 1-591)
47 | binds | Bcl-2-associated transcription factor 1 (from UniProt Q9NYF8 1-920)
48 | binds | GLO1 (from UniProt Q04760 1-184)
49 | binds | PPARD (from UniProt Q03181 1-441)
50 | binds | CAPZB (from UniProt P47756 1-272)
51 | binds | TOP1 (from UniProt P11387 1-765)
52 | binds | CBX3 (from UniProt Q13185 1-183)
53 | binds | PWP1 (from UniProt Q13610 1-501)
54 | binds | EPB41L2 (from UniProt O43491 1-1005)

No constants are given. Whether binding was seen depends on the method and setting. In cells and extracts the contact can be indirect. These calls come from enrichment with a bait or labelling near it, and not all partners need be listed.
